Percent effect of library compounds

T. brucei: 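Whole-parasite assay of Trypanosoma brucei over 72 hours; the read-out is not stated. Concentration: 30 µM. The record gives no direction; compounds that gave an IC50 in retests scored well above the rest, so higher reads as stronger inhibition. Values scatter widely below zero; nearly all retest evidence comes from the higher of the two concentrations used. Size under these conditions: about 64,000 compounds, about 940 of them at 50% or above in at least one test.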
Toxoplasma: 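Assay of Toxoplasma gondii numbers, read through their beta-galactosidase reporter with a colour substrate. Concentration: 10 µM. The record gives no direction; the compounds picked for IC50 retests had high values, so higher reads as fewer parasites. About 67,000 compounds were tested under these conditions; 0.38% (about 260) showed 50% or more at least once.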

The filed quantity is “Percent Effect” (%). How 0% and 100% were set is not recorded. Most values in the screen are low, and negative values occur. This is an unselected part of the compounds tested. A dash means the value is not listed here; it may have been measured.

CN1CCCC(c2ccnc(C(=O)NCC3CC3)c2)C1 (centres undefined) read T. brucei: -15.86%; Toxoplasma: 5.59%. Result for COc1ncnc(N)c1CNCCc1ccc(-n2cccn2)cc1 was T. brucei: 20.22%; Toxoplasma: -2.037%. Result for O=C(CN1CCN(CCO)CC1)NCCc1c(F)cccc1F was T. brucei: -16.13%; Toxoplasma: -7.372%. CC(C)CC(=O)N1CCc2nc(N3CCOCC3)nc(NC(C)C)c2C1 gave T. brucei: 21.8%; Toxoplasma: 1.83%. CC(NCc1ccc(OCc2nccn2C)cc1)c1cccnc1 (centres undefined) read T. brucei: -4.889%; Toxoplasma: -8.975%.

O=C(O)C(F)(F)F.[H][C@]12CN(Cc3cccc(C)c3)C[C@@]1([H])S(=O)(=O)CC[C@@H]2C(=O)NCC(C)C gave T. brucei: -26.43%; Toxoplasma: 3.342%. N#Cc1cc(NC(=O)c2ccccc2)ccc1N1CCC(O)CC1 read T. brucei: 39.22%; Toxoplasma: -1.269%. Result for CC(=O)NC[C@H]1COCc2nc3cc(S(C)(=O)=O)ccc3n21 was T. brucei: -11.14%; Toxoplasma: -6.577%. For Cc1nc(C2CCCN2Cc2nc(C3CC3)no2)no1 (centres undefined) the result was Toxoplasma: 11.55%. Result for NC(=O)c1cccc(CCNCc2cnc(C3CCC3)s2)c1 was T. brucei: -44.32%; Toxoplasma: -13.57%.

For CN(Cc1ccccn1)C1COC2(CCN(Cc3nccs3)CC2)C1 (centres undefined) the result was T. brucei: 58.22%; Toxoplasma: 2.457%. Cc1cc(C[C@@H]2COC[C@@H]2NC(=O)Cn2c(=O)oc3ccccc32)on1 gave T. brucei: -77.24%; Toxoplasma: 2.408%. For Cc1nn(CCC#N)c(C)c1CCC(=O)N(C)Cc1ccc(F)cc1F the result was T. brucei: -65.11%; Toxoplasma: 4.205%. O=C(O)C(F)(F)F.O=C(O)C(F)(F)F.O=C(O)C(F)(F)F.[H][C@]12CC(Cn3cccn3)N(C)[C@@]1([H])CCN(Cc1ccc(C)s1)C2 (some centres undefined) read T. brucei: 2.612%; Toxoplasma: 25.51%. For O=C(c1cnc(O)cn1)N1CCC(CN2CCOCC2)CC1 the result was T. brucei: -3.764%; Toxoplasma: 2.411%.

N#Cc1ccc(CN2CCCN(C(=O)CCn3cncn3)CC2)cc1 read T. brucei: -65.19%; Toxoplasma: 7.724%. With Cc1cnn(CC2CCCN2C(=O)CCc2c(C)noc2C)c1 (centres undefined) the screen gave T. brucei: -0.06026%; Toxoplasma: -5.508%. For CN1CCN(CCCNCc2cc(O)c3cc(F)ccc3n2)CC1 the result was T. brucei: -1.28%; Toxoplasma: -2.93%. Fc1ccccc1-c1nccnc1C1CCCNC1 (centres undefined) read T. brucei: -9.988%; Toxoplasma: 12.34%. For Cl.O=C1C(NCc2ccc3c(c2)CCO3)CCN1Cc1ccccc1 (centres undefined) the result was T. brucei: -41.51%; Toxoplasma: -15.95%.

For Cc1ccc(CN(C)C(=O)CN2CCc3ccccc3C2)o1 the result was T. brucei: -41.42%. For Cc1cc(C)c(C(=O)NC(CN2CCCC2)c2ccccc2)c(=O)[nH]1 (centres undefined) the result was T. brucei: -61.54%; Toxoplasma: 7.941%. CCOCC(=O)N1C[C@@H](O)[C@H](N2CCN(c3ccccc3)CC2)C1 read T. brucei: -14.74%; Toxoplasma: -7.415%.

Once more, the final 3:

structure,T. brucei,Toxoplasma
Cc1ccc(CN(C)C(=O)CN2CCc3ccccc3C2)o1,-41.42,-
Cc1cc(C)c(C(=O)NC(CN2CCCC2)c2ccccc2)c(=O)[nH]1 (centres undefined),-61.54,7.941
CCOCC(=O)N1C[C@@H](O)[C@H](N2CCN(c3ccccc3)CC2)C1,-14.74,-7.415

Data taken from ChEMBL document CHEMBL3988442, “University of Dundee, Small-Polar-MMV Screening Library” (2021).